Marks after values point to notes of the source that are not given here.
assay: Deliverability of anionophores to vesicles (external addition vs preincorporation); format: biochemical; details: I for external addition divided by I for preincorporated anionophore; new compound or new data

Row | Compound | Deliverability index (D)
1 | CCc1c(CNC(=S)Nc2ccc(C(F)(F)F)cc2)c(CC)c(CNC(=S)Nc2ccc(C(F)(F)F)cc2)c(CC)c1CNC(=S)Nc1ccc(C(F)(F)F)cc1 [Compound 5] | 0.24 ^b
2 | CCc1c(CNC(=S)Nc2cc(C(F)(F)F)cc(C(F)(F)F)c2)c(CC)c(CNC(=S)Nc2cc(C(F)(F)F)cc(C(F)(F)F)c2)c(CC)c1CNC(=S)Nc1cc(C(F)(F)F)cc(C(F)(F)F)c1 [Compound 6] | 0.11 ^b
3 | CCc1c(CNC(=O)Nc2cc(C(F)(F)F)cc(C(F)(F)F)c2)c(CC)c(CNC(=O)Nc2cc(C(F)(F)F)cc(C(F)(F)F)c2)c(CC)c1CNC(=O)Nc1cc(C(F)(F)F)cc(C(F)(F)F)c1 [Compound 7] | 0.18 ^b
4 | COCCOCCOC(=O)[C@]12CC[C@@H](NC(=O)Nc3ccc(C(F)(F)F)cc3)C[C@@H]1C[C@@H](NC(=O)Nc1ccc(C(F)(F)F)cc1)CC2 [Compound 9] | 1.55
5 | COCCOCCOC(=O)[C@]12CC[C@@H](NC(=O)Nc3cc(C(F)(F)F)cc(C(F)(F)F)c3)C[C@@H]1C[C@@H](NC(=O)Nc1cc(C(F)(F)F)cc(C(F)(F)F)c1)CC2 [Compound 10] | 0.95
6 | CCOC(=O)[C@]12CC[C@@H](NC(=S)Nc3ccc([N+](=O)[O-])cc3)C[C@@H]1C[C@@H](NC(=S)Nc1ccc([N+](=O)[O-])cc1)CC2 [Compound 12] | 1.12
7 | CCCCCCCCOC(=O)[C@]12CC[C@@H](NC(=S)Nc3ccc([N+](=O)[O-])cc3)C[C@@H]1C[C@@H](NC(=S)Nc1ccc([N+](=O)[O-])cc1)CC2 [Compound 13] | 0.24
8 | CCOC(=O)[C@]12CC[C@@H](NC(=S)Nc3ccc(C(F)(F)F)cc3)C[C@@H]1C[C@@H](NC(=S)Nc1ccc(C(F)(F)F)cc1)CC2 [Compound 14] | 2.02 ^b
9 | FC(F)(F)c1cc(NC(=S)NCCN(CCNC(=S)Nc2cc(C(F)(F)F)cc(C(F)(F)F)c2)CCNC(=S)Nc2cc(C(F)(F)F)cc(C(F)(F)F)c2)cc(C(F)(F)F)c1 [Compound 19] | 2.98 ^b

assay: not given; parameters: method as in ref [20], [24], [29] (Reference column); details: I for external addition divided by I for preincorporated anionophore; ref [20], [24], [29]; cited from earlier work

Row | Compound | Deliverability index (D)
10 | CCCCCCCCOC(=O)[C@]12CC[C@@H](NC(=S)Nc3cc(C(F)(F)F)cc(C(F)(F)F)c3)C[C@@H]1C[C@@H](NC(=S)Nc1cc(C(F)(F)F)cc(C(F)(F)F)c1)CC2 [Compound 16] | 0.03
11 | O=C(Nc1ccc([N+](=O)[O-])cc1)Nc1cccc2cc3cccc(NC(=O)Nc4ccc([N+](=O)[O-])cc4)c3cc12 [Compound 20] | 0.82
12 | O=C(Nc1ccc(C(F)(F)F)cc1)Nc1cccc2cc3cccc(NC(=O)Nc4ccc(C(F)(F)F)cc4)c3cc12 [Compound 21] | 0.62
13 | O=C(Nc1cc(C(F)(F)F)cc(C(F)(F)F)c1)Nc1cccc2cc3cccc(NC(=O)Nc4cc(C(F)(F)F)cc(C(F)(F)F)c4)c3cc12 [Compound 22] | 0.45

From PMC6984391, “Anion carriers as potential treatments for cystic fibrosis: transport in cystic fibrosis cells, and additivity to channel-targeting drugs” (Chemical Science, 2019)
